No constants are given. Whether binding was seen depends on the method and setting. Binding seen in cells or lysates may run through a third protein. Some entries that bind do so weakly or less than the wild type. Tags and fused reporters may be left off the sequences shown.
Target: T1, ZSWIM4-Myc (Myc-tagged human Zinc Finger SWIM-Type Containing 4) (human) (UniProt Q9H7M6)
T1 sequence: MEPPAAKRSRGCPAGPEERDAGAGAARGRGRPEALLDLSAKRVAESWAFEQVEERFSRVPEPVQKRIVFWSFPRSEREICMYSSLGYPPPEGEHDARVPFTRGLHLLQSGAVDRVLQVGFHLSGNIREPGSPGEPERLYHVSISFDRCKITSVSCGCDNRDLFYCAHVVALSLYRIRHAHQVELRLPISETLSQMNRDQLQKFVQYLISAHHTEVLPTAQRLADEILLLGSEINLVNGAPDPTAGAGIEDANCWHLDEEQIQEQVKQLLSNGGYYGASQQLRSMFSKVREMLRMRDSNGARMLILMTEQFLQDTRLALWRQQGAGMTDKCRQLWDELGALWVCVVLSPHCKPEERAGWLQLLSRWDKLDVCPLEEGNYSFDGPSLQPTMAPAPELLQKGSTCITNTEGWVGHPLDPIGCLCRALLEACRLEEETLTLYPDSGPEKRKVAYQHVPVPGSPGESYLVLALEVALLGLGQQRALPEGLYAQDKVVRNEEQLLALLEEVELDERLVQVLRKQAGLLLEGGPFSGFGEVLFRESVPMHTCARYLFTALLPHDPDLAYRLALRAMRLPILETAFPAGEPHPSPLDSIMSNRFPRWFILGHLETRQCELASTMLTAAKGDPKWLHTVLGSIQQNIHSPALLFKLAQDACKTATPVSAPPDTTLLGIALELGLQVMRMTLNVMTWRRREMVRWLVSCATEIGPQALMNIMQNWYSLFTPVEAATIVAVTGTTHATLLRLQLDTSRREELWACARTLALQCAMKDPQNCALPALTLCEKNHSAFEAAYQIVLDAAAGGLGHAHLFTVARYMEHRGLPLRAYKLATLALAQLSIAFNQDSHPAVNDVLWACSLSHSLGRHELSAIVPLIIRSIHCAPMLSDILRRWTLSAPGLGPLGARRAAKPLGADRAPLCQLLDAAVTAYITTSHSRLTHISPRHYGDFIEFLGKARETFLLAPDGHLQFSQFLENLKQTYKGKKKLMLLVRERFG
Experiment: co-IP; wild-type ZSWIM4 or ΔN with ELOB (Figure 6H) or ELOC (Figure 6I); cells, tags and antibodies not given

By UniProt entry, the sequences of proteins in these tests, tags left out.
UniProt Q15370: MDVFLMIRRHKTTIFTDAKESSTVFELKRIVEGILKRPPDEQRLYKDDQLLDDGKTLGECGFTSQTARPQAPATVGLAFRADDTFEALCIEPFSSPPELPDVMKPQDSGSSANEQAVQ

“ELOB (construct of Figure 6H) (from UniProt Q15370 1-118)” was tested. Which binding did it give?
Its binding is “binds”.

Source: PMC10897318
